From patent US20250002465A1, “TRIMERIC COPPER CATALYSTS, INTERMEDIATES FOR MAKING SUCH CATALYSTS AND METHOD FOR PREPARING A CYCLOADDITION COMPOUND” (University of Kentucky Research Foundation, priority 2023, published 2025) come the findings set out here.

The data set deals with MDA-MB-468. The data set can be described thus: Cytotoxicity, MTT assay. The note with it: MDA-MB-468 cells. (Tetrazolium dyes change colour on reduction, which living cells bring about.)

Regarding “(Cis,cis-1,3,5-cyclohexanetribenzimidazole-1-(2-(2-methoxyethoxy)ethyl)-2-yl)2(Cu(I)PF6)3 [compound 7]”, the “IC50 relative to IC50 of THPTA” value was “three times”. The entry for “(Cis,cis-1,3,5-cyclohexanetribenzimidazole-1-butyl-2-yl)2(Cu(I)PF6)3 [compound 6]” is “more than twice”.
